Test results: patent US20030119716A1, “Methods for screening, treating and diagnosing G-protein coupled receptor-related disorders and compositions thereof” (Wyeth, priority 2001, published 2003)
“Also recorded” adds a separate entry of the source. At least one compound was matched to its structure with a doubt left.

Columns and labels:
Assay type in all cases: cell-based, Chinese hamster
Conditions in all cases: 50 nM wortmannin, 100 nM quinpirole
[1] = tested on: c-fos SRE activation in CHO cells stably expressing D2R; assay: SRE-luciferase reporter assay, quinpirole-stimulated c-fos SRE activation in CHO-D2R cells
Akt phosphorylation = assay: Western blot of phospho-Akt in CHO-D2R cells
Erk1/2 phosphorylation = assay: Western blot of phospho-Erk1/2 in CHO-D2R cells
Procedure: Cell lysates were prepared by incubating cells for 5 minutes on ice with a lysis buffer containing […] NaCl, 50 mM Tris, pH 7.5, 5 mM EDTA, 1% Triton, and a mixture of protease inhibitors. Cells were then scraped off plates and sonicated. The detergent-insoluble material was removed by microcentrifugation for 10 minutes at 4° C. An equal amount of protein was run on SDS gels (Novex, Carlsbad, Calif.) and transferred to nitrocellulose (Bio-Rad, Hercules, Calif.). […] The membrane was washed, incubated for 1 hour in TBS containing appropriate HRP-conjugated secondary antibodies, washed again, and developed with the ECL reagent (Amersham Pharmacia Biotech, Piscataway, N.J.).

Compound: COC[C@H]1OC(=O)c2coc3c2[C@@]1(C)C1=C(C3=O)[C@@H]2CCC(=O)[C@@]2(C)C[C@H]1OC(C)=O [wortmannin]
- effect on quinpirole-stimulated SRE activation [1]: did not alter the magnitude of the SRE activation; also recorded: did not diminish SRE activation
- effect on quinpirole-stimulated Akt phosphorylation (Akt phosphorylation): diminished Akt phosphorylation to its basal level
- effect on quinpirole-stimulated Erk1/2 phosphorylation (Erk1/2 phosphorylation): no inhibition of the Erk1/2 phosphorylation
